PubChem BioAssay AID1259308 | NCATS – 2017
Aim: 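Knock-downs that increase output of a recombinant reporter protein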 (primary screen). System: human HEK293 embryonic kidney cells stably expressing firefly luciferase (HEK-CMV-Luc2-Hygro). Reagents: single siRNA against human genes, 0.8 pmol siRNA per well. Time to read-out: 72 h. Measured: 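Luciferase light (ONE-Glo) measured on one replicate plate set and viability (CellTiter-Glo) on the other, scaled to a negative control siRNA, with robust z-scores and luciferase per cell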. Direction: total luciferase, z-score and total luciferase, % of control: higher = more reporter protein produced. Rule for the call: 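An siRNA counts as active if its total luciferase robust z-score exceeds 3; genes with two or more such siRNAs out of three were retested with fresh siRNAs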. Calls: active = raised luciferase; inactive = no rise.
The whole screen tested about 59,000 reagents; below is a part drawn at random. About 1,510 of them (2.6%) count as active. 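Calls use total luciferase alone and ignore viability, so some active siRNAs may act by altering cell number.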 A number with no mark means an inactive call. The numbers tell different reagents against one gene apart. Further read-outs or replicates are left out here.

SMIM43 #1 | total luciferase, z-score: 0.706; total luciferase, % of control: 95.9
SMIM43 #2 | total luciferase, z-score: -1.16; total luciferase, % of control: 58.9
SMIM43 #3 | total luciferase, z-score: 1.05; total luciferase, % of control: 103
NSD3 #1 | total luciferase, z-score: -0.257; total luciferase, % of control: 76.8
NSD3 #2 | total luciferase, z-score: 0.0214; total luciferase, % of control: 82.3
NSD3 #3 | total luciferase, z-score: 0.736; total luciferase, % of control: 96.5
TMEM14B #1 | total luciferase, z-score: 0.541; total luciferase, % of control: 92.7
TMEM14B #2 | total luciferase, z-score: -2.03; total luciferase, % of control: 41.6
TMEM14B #3 | total luciferase, z-score: -2.93; total luciferase, % of control: 23.6
NLRX1 #1 | total luciferase, z-score: -1.11; total luciferase, % of control: 59.8
NLRX1 #2 | total luciferase, z-score: -1.26; total luciferase, % of control: 56.8
NLRX1 #3 | total luciferase, z-score: -1.2; total luciferase, % of control: 57.9

2 entries from above, limited to “total luciferase, % of control”.
SMIM43 #3: 103
NSD3 #1: 76.8
